Some results were stated once for a whole list of compounds, not compound by compound. At least one structure is not confirmed: it was looked up by name or label, or the drawing left a doubt.
Assays:
[1] = tested on: Pyricularia oryzae; assay type: in vivo, Pyricularia oryzae on rice c.v. Tai-Nong 67; details: 16 ppm, protective, inoculated next day, 6 days; untreated plants 85% infection
[2] = tested on: Plasmopara viticola; assay: Activity against Plasmopara viticola (persistency, potted grapevines); assay type: in vivo, Plasmopara viticola on grapevines c.v. Müller-Thurgau; details: 16 ppm, inoculated 7 days after spraying; untreated plants 75% infection
[3] = tested on: powdery mildew of wheat (Erysiphe graminis form a specialis tritici); assay: Activity against powdery mildew of wheat (protective, potted wheat seedlings); assay type: in vivo; details: 16 ppm, sprayed 24 h before dusting with spores, scored after 7 days; untreated plants 80% infection

| Structure (SMILES) | % infection (disease development on the leaves) [1] | % infection (disease development on the undersides of the leaves) [2] | % infection of the total leaf area (mildew development) [3] |
| --- | --- | --- | --- |
| CNC(=O)C(=NOC)c1ccccc1COc1ccc(-n2nc(C)cc2C)cc1Cl [I-11, N-methyl-2-{2-chloro-[4-(3,5-dimethyl)pyrazol-1-yl]phenoxymethylene}-phenylglyoxamide O-methyloxime] | at most 15% | at most 15% | – |
| CON=C(C(=O)OC)c1ccccc1COc1ccc(-n2nc(C)cc2C)cc1Cl [I-12, methyl 2-{2-chloro-[4-(3,5-dimethyl)-pyrazol-1-yl]phenoxymethylene}phenylglyoxylate O-methyloxime] | at most 15% | – | at most 15% |

— patent US6583090B1, “Hetaryl-substituted benzyl phenyl ethers, method for the production thereof, and their use for combating harmful fungi and animal pests” (priority 1998, dated 2003)
